In PMC8816936:
These are yes or no findings as the source states them, for the method shown. In cells and extracts the contact can be indirect. Some entries that bind do so weakly or less than the wild type.

Chains of the proteins cited; added tags and fusions are not shown.
UniProt Q07817: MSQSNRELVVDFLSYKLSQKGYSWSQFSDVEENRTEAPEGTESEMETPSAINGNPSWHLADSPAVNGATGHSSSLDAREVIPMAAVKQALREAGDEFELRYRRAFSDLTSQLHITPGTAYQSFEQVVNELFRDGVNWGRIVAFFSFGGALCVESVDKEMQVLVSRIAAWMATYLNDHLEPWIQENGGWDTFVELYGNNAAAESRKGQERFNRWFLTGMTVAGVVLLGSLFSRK
UniProt O60260: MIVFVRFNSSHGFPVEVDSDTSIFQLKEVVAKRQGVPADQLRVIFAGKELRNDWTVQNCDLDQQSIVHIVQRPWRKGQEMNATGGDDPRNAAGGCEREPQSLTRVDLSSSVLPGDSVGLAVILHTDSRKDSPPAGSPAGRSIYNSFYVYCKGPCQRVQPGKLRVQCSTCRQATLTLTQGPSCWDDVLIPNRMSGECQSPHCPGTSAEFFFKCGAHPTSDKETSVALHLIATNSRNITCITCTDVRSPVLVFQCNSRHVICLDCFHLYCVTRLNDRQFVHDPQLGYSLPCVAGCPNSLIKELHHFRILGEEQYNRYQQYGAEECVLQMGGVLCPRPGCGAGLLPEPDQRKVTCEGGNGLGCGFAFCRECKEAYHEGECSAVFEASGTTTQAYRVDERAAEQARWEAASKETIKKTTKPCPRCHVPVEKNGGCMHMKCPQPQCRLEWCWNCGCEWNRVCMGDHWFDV

Biological target: Bcl-xL (human (endogenous in human cancer cell lines)) (UniProt Q07817)
Experiment: co-IP; lysates of various cancer cell lines in RIPA lysis buffer with 10 mM N-ethylmaleimide and 1 mM PMSF, sonicated; 1 ug anti-Bcl-xL antibody overnight at 4 °C, Protein G agarose beads 2 h at 4 °C; western blot; control conditions

binding: binds
Substance: Parkin (from UniProt O60260 1-465) (enzyme)
